Experimental data published in patent US20190367606A1 (CENTRE FOR DRUG RESEARCH AND DEVELOPMENT, published 2019).
Results are given in words; binding and its absence hold for the method and conditions named. Some results given as binding are weak or reduced against the parent protein; the word gives no strength. Sequences can lack the tags named with a protein.

Target: T1, hPodocalyxin/Fc fusion protein (human) (UniProt O00592)
T1 sequence (looked up): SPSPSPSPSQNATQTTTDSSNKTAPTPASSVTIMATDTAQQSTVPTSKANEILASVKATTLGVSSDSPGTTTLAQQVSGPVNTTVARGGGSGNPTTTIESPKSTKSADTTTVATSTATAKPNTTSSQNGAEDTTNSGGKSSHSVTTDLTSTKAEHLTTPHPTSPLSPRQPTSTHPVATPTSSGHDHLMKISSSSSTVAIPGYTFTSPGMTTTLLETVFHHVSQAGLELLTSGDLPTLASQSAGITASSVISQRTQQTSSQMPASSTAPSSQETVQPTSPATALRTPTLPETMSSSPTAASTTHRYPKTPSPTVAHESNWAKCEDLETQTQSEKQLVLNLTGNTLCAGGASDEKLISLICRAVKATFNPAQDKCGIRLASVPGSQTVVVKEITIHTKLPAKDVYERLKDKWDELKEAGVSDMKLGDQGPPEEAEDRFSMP
Test: ELISA, rabbit B cell supernatants

B1: Rabbit Podo 83 (Parental rabbit antibody) (antibody, V domains shown)
VH: QSLAESGGRLVTPGTPLTLTCTASGIDLSSYAMGWVRQAPGKGLEYIGFIYASGSIFYASWAKGRFTISKTSSTTVDLKMTSLTTEDTATYFCARAGYYFGGNYDLNLWGQGTLVTVSS
VL: DIVLTQTPASVEVAVGGTVTIKCQASQSISNYLAWYQRKPGQPPRLLIYRASTLASGVSSRFKGSGSGTQFTLTISGVECADAATYYCQQGYVSNNLDNIFGGGTEVVVK
notes: Rabbit constant regions; also called Rb Podo 83 (Rb Constant Region); rabbit Podo-83 (Ab-1)
  binding: binds
